Data on 15 targets can be found in the supplement of paper PMC11006884.

By UniProt entry, the sequences of proteins in these tests, tags left out. Where a name states a change or a piece, a line headed by the entry shows the natural chain unless it says otherwise.
UniProt Q86XL3: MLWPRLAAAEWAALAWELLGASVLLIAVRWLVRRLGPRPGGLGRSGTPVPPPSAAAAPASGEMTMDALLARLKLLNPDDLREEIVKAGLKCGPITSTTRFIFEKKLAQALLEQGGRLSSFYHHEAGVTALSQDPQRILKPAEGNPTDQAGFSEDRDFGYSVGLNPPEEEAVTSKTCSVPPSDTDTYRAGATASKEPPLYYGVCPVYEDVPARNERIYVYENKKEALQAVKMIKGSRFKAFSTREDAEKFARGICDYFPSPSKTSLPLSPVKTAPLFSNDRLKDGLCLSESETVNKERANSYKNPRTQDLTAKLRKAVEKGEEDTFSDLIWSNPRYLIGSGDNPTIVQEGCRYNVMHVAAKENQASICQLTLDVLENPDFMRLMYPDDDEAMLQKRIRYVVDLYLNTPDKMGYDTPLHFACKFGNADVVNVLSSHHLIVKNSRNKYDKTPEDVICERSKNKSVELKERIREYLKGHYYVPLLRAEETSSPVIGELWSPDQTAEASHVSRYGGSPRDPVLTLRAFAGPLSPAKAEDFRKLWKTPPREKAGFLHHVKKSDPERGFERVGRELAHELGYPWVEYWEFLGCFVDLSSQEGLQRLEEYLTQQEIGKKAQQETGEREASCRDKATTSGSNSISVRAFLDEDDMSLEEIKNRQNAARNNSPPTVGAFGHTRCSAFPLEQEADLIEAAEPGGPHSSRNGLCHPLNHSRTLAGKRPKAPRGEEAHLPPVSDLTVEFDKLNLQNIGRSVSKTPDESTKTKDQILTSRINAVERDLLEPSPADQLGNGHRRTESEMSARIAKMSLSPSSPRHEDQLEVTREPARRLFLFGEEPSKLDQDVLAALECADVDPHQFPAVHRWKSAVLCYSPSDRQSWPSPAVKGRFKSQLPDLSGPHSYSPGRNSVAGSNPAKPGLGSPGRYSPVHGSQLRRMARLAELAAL
UniProt Q86XN8: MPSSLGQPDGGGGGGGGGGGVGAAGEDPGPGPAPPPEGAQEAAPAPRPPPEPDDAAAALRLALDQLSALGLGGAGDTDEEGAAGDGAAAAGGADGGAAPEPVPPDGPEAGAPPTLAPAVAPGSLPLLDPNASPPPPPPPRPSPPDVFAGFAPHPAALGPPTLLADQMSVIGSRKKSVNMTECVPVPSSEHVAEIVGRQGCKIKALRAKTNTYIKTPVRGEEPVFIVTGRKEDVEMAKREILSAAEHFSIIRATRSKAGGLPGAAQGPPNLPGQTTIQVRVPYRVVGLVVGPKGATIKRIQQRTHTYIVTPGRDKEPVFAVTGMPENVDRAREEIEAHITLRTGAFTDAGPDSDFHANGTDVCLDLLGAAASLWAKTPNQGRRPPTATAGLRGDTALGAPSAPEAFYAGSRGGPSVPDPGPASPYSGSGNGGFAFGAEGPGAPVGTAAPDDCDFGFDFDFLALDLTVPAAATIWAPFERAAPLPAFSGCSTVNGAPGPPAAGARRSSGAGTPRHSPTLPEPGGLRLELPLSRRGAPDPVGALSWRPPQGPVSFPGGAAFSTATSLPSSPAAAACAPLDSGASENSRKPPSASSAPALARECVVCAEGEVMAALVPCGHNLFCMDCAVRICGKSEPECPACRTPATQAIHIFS
UniProt Q8IU81: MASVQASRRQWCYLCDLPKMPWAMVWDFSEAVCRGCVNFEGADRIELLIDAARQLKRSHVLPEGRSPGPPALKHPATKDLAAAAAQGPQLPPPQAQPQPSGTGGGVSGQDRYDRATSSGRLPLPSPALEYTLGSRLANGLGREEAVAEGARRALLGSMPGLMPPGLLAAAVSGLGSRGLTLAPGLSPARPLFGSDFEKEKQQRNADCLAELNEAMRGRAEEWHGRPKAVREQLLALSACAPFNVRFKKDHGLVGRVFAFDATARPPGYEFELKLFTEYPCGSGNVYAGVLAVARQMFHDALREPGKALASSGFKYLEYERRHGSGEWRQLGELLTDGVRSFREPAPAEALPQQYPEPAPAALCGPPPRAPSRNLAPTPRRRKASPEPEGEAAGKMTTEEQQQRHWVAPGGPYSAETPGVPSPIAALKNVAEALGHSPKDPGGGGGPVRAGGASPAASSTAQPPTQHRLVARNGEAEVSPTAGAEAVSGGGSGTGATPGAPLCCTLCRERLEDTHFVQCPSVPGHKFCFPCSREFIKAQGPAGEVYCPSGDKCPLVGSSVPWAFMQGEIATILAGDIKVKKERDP
UniProt Q8IWX8: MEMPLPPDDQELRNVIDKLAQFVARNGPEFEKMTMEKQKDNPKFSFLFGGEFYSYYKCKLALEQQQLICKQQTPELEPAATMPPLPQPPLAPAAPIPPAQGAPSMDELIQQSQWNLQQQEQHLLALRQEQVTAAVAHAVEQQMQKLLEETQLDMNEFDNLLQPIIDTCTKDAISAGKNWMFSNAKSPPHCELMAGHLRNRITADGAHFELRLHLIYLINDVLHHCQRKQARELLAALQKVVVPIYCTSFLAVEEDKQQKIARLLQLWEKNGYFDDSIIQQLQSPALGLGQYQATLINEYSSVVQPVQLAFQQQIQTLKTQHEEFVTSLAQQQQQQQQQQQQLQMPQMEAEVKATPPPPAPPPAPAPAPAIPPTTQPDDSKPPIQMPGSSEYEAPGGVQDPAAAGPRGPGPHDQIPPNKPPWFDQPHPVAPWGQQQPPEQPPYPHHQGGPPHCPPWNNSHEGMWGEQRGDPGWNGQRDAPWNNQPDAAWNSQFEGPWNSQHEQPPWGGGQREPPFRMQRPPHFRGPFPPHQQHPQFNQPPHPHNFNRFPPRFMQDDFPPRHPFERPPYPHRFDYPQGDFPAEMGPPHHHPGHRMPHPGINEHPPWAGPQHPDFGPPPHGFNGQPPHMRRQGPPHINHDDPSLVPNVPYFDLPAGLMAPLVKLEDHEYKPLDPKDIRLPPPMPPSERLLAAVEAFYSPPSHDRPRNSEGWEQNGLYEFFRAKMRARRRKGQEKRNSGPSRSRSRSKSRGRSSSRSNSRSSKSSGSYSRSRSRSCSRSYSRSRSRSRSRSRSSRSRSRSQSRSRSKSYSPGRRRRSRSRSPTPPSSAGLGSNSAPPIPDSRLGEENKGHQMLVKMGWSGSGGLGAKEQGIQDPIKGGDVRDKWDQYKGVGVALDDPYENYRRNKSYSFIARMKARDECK
UniProt Q71F56: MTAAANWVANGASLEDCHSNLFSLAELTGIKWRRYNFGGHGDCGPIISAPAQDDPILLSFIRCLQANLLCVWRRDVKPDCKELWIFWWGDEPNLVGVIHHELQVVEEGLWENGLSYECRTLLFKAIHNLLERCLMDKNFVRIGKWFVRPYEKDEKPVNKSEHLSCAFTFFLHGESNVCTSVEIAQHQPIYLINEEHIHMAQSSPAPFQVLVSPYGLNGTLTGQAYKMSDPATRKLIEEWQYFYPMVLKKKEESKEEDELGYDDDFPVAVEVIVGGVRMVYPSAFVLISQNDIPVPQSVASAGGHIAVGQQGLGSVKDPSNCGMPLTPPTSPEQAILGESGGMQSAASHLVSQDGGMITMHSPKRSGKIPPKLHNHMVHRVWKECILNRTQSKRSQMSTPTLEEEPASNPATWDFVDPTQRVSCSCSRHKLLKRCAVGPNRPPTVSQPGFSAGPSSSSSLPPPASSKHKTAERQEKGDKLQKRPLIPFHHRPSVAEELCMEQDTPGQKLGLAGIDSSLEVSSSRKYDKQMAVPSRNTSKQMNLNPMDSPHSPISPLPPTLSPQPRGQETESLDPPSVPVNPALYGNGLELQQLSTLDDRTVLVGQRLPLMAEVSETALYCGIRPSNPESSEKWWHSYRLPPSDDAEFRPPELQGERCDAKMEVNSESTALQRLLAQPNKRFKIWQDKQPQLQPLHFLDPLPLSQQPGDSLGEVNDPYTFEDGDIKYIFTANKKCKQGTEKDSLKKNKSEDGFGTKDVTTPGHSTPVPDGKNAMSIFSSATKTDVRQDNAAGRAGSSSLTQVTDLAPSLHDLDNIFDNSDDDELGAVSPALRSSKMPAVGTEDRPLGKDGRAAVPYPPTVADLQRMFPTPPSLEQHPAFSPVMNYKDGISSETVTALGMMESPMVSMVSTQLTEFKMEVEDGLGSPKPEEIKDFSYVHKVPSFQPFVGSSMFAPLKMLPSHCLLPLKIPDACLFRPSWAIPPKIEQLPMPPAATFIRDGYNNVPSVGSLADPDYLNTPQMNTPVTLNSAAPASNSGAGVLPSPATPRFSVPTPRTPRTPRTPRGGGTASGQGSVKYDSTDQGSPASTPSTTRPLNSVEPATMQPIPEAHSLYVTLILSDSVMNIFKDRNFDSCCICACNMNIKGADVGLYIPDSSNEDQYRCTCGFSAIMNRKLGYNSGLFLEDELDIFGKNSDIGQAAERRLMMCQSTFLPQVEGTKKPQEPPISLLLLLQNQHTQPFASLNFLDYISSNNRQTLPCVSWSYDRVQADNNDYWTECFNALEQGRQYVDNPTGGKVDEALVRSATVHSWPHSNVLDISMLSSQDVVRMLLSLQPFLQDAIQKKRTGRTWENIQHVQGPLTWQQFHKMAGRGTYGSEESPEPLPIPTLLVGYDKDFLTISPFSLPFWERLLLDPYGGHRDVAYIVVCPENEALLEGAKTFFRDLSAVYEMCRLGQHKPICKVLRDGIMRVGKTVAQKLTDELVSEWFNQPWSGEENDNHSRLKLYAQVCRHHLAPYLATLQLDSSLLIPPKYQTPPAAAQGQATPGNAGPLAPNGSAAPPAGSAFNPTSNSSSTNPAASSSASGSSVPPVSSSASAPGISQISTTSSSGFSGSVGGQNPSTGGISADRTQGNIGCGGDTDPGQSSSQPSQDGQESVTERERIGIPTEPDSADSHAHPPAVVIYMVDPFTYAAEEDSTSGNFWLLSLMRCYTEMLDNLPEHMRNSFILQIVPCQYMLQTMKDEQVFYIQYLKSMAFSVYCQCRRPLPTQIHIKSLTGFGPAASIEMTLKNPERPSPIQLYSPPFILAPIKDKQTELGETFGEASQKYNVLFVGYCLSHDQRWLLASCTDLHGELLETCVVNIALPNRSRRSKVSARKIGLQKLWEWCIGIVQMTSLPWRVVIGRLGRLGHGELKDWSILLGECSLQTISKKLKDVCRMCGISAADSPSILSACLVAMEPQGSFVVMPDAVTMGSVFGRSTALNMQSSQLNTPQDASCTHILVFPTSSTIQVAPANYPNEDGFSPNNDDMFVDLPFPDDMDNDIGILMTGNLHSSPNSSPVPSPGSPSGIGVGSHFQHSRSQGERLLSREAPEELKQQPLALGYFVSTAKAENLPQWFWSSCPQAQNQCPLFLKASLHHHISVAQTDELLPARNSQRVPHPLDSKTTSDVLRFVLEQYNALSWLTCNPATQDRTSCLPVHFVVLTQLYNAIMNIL
UniProt Q7Z2K8: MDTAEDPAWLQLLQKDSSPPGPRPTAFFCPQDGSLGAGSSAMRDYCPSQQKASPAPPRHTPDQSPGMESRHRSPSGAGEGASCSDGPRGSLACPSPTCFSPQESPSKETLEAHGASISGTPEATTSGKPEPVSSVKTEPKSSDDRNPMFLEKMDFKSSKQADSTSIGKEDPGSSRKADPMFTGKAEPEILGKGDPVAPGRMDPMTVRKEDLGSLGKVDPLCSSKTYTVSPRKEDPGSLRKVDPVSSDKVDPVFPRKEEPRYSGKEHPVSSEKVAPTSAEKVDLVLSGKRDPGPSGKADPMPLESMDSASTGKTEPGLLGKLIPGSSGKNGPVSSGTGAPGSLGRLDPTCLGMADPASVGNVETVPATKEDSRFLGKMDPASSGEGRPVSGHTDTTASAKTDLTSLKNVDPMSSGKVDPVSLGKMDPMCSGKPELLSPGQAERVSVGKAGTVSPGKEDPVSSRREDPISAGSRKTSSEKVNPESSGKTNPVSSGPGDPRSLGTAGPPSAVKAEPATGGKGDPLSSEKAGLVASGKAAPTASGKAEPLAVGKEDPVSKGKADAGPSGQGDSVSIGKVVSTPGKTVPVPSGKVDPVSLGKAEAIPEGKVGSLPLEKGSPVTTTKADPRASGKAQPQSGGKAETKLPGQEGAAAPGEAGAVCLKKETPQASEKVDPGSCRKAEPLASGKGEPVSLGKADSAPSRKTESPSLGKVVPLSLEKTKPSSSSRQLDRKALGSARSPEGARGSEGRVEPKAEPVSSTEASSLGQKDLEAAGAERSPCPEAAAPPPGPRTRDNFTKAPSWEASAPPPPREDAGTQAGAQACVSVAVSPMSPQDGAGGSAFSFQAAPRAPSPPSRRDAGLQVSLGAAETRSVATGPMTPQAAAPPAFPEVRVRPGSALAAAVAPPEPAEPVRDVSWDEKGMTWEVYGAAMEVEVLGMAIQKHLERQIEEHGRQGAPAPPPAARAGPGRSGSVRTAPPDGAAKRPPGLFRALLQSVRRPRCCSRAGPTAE

The list shows a part of the results, in another mix than the full data.

Compound in the test: COC(=O)C#Cc1ccccc1 [methyl 3-phenylpropiolate]
As to the kind of experiment: log2 ratio of iodoacetamide-alkyne labeling of the cysteine site, DMSO over compound (competition); higher = stronger covalent engagement of the cysteine by the compound, active = 1 or more. The conditions noted are these: 500 µM; treatment time 1 h; system: HEK293T cell lysate. Summed up: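 Three replicates, each with duplicate channels, were prepared from HEK293T lysate (2 mg/mL) treated with vehicle or electrophile at 500 µM for 1 h at ambient temperature. Iodoacetamide alkyne was then applied for 1 h, and samples were clicked to sCIP-TMT reagents, pooled, trypsin-digested overnight at 37 °C, enriched on streptavidin, acid-eluted and analysed on Orbitrap Eclipse LC-MS/MS with FAIMS, with FragPipe quantification. The log2 competition ratio per cysteine is the mean control-channel divided by the mean compound-channel reporter intensity. Cysteines quantified in only one replicate were left out.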
As for UniProt Q7Z4H7_C885, the “log2 ratio of iodoacetamide-alkyne labeling” value (“log2 ratio” below) is inactive: 0.286. HEATR3 C173 (UniProt Q7Z4Q2): the “log2 ratio” value was inactive: 0.137.

On to UniProt Q7Z5K2_C964, for which the “log2 ratio” value is inactive: 0.46. Take DHX30 C286 (UniProt Q7L2E3): the “log2 ratio” value is inactive: 0.0941. With THOC6 C314 (UniProt Q86W42), the “log2 ratio” value is inactive: 0.0566. As for ANKLE2 C674 (UniProt Q86XL3), the “log2 ratio” value was inactive: 0.639. Turning to MEX3D C362 (UniProt Q86XN8), the “log2 ratio” value is inactive: 0.335.

For the target IRF2BP1 C207 (UniProt Q8IU81), the “log2 ratio” value was inactive: 0.142. As to CHERP C246 (UniProt Q8IWX8), the “log2 ratio” value was inactive: 0.255. Regarding CAND1 C954 (UniProt Q86VP6), the “log2 ratio” value was inactive: 0.0799. Turning to MED13L C1204 (UniProt Q71F56), the “log2 ratio” value is inactive: 0.301. Turning to DHX30 C673 (UniProt Q7L2E3), the “log2 ratio” value is inactive: -0.387. Turning to VPS13B C2907 (UniProt Q7Z7G8), the “log2 ratio” value is inactive: 0.889.

In the case of LUZP1 C969 (UniProt Q86V48), the “log2 ratio” value is active: 1.01. In the case of GPRIN1 C221 (UniProt Q7Z2K8) it was inactive: 0.238.
